Laboratory results as given in article PMC6873818.
These are yes or no findings as the source states them, for the method shown. Some results given as binding are weak or reduced against the parent protein; the word gives no strength.

T1: DRG1 (human (endogenous in HEK293T)) (UniProt Q9Y295)
T1 sequence: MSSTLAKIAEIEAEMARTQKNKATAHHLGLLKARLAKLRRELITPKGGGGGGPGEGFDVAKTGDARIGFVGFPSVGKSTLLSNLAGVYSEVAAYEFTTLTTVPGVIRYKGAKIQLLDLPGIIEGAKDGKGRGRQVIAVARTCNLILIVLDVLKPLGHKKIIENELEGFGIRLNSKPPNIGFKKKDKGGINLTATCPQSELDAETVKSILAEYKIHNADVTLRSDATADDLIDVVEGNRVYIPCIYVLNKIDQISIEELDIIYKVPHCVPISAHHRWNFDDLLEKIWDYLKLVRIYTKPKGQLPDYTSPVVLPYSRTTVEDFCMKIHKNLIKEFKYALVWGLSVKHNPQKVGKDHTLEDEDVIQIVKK

T2: Racgap1 (mouse (endogenous in J1 ES cells)) (UniProt Q9WVM1)
T2 sequence: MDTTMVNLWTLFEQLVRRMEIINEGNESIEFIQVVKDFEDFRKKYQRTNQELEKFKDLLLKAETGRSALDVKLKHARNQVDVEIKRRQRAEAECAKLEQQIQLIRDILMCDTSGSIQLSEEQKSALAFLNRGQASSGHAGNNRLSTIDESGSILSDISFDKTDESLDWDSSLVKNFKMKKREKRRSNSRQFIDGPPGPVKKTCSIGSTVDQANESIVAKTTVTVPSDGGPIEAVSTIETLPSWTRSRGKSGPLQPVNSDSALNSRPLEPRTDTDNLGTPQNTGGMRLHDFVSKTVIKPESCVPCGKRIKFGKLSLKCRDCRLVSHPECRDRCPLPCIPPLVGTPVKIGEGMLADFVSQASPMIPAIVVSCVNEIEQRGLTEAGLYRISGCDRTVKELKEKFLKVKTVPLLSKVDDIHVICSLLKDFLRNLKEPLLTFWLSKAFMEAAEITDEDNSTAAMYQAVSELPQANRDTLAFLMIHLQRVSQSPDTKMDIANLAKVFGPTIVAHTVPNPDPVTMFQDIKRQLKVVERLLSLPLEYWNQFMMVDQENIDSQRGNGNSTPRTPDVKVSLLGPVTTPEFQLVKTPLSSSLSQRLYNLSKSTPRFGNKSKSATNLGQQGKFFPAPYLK

B1: LRRC41 (protein, UniProt Q15345 1-812)
chain: MAAPEAWRARSCWFCEVAAATTMEATSREAAPAKSSASGPNAPPALFELCGRAVSAHMGVLESGVWALPGPILQSILPLLNIYYLERIEETALKKGLSTQAIWRRLWDELMKTRPSSLESVTCWRAKFMEAFFSHVLRGTIDVSSDRRLCDQRFSPLLHSSRHVRQLTICNMLQGATELVAEPNRRVLETLASSLHTLKFRHLLFSDVAAQQSLRQLLHQLIHHGAVSQVSLYSWPVPESALFILILTMSAGFWQPGPGGPPCRLCGEASRGRAPSRDEGSLLLGSRRPRRDAAERCAAALMASRRKSEAKQMPRAAPATRVTRRSTQESLTAGGTDLKRELHPPATSHEAPGTKRSPSAPAATSSASSSTSSYKRAPASSAPQPKPLKRFKRAAGKKGARTRQGPGAESEDLYDFVFIVAGEKEDGEEMEIGEVACGALDGSDPSCLGLPALEASQRFRSISTLELFTVPLSTEAALTLCHLLSSWVSLESLTLSYNGLGSNIFRLLDSLRALSGQAGCRLRALHLSDLFSPLPILELTRAIVRALPLLRVLSIRVDHPSQRDNPGVPGNAGPPSHIIGDEEIPENCLEQLEMGFPRGAQPAPLLCSVLKASGSLQQLSLDSATFASPQDFGLVLQTLKEYNLALKRLSFHDMNLADCQSEVLFLLQNLTLQEITFSFCRLFEKRPAQFLPEMVAAMKGNSTLKGLRLPGNRLGNAGLLALADVFSEDSSSSLCQLDISSNCIKPDGLLEFAKRLERWGRGAFGHLRLFQNWLDQDAVTAREAIRRLRATCHVVSDSWDSSQAFADYVSTM
B2: Kif23 (protein, UniProt E9Q5G3 1-953)
chain: MKSAKAKTVRKPVIKKGSQTNLKDPVGVYCRVRPLSFPDQECCVEVINSTTLQLHTPEGYRLNRNGDYKETQYSFKRVFGTHTTQKELFDVVANPLVDDLIHGKNGLLFTYGVTGSGKTYTMTGSPGSGGLLPRCLNMIFNSIGSFQAKRYVFKSNDRNSMEIQCEVDALLERQKREALPIPKTPSSKRQADPEFADMINVQEFCKAEEVDEDSVYGVFVSYIEIYNNYIYDLLEEVQFDPIKPKLPQSKTLREDKNHNMYVAGCTEVEVKSTEEAFEVFWRGQKKRRIANTHLNRESSRSHSVFSIKLVQAPLDADGDNVLQEKEQITISQLSLVDLAGSERTNRTKAEGNRLREAGNINQSLMTLRTCMEVLRENQTYGTNKMVPYRDSKLTHLFKNYFDGEGKVRMIVCVNPKAEDYEESLQVMRFAEVTQEVEVARPVDKVICGLTPGRRYRNLPRGGPVGDEPLVPEVILQSFPPLPPCKLLDINDEETLPKLADTLEKRHHLRQLMTEDLNKKCLAFKALLKEFDNSLSNKENYVQEKLNEREKVISGQKLEIERLEKKNKTLEYKIEILEKTTTIYEEDKRNLQQELESQNQKLQRQFSDKRRLEARLQGMVTETSMKWQKECERRVAATQLEMQNKLWVKDEKLKQLKAIVTEPKPEKPERPSRERDREKIIPRSVSPSPLPLSSNNIAQISNGQQLMSQPQLHRRSNSCSSISVASCISEWEQKLSPFSTPVNVTSLARHRQQEPGQSKTCIVSDRRRGMCWTEGREMVPTFSSEIGVEEDHCRRNTPIPVRHRRSRSAGSRWVDHKPASNVQTETVMQPHVPHAITVSVANEKALAKCEKYMLTHQELASDGEIQTKVIKGDVYKTRGGGQSVQFTDIETLKQELPTGSRKRRSSTLAPAQPDGTESEWTDVETRCSVAVEMRAGSQLGPGYQHHAQPKRKKP

Tests used:
[1] = biological target: T1, DRG1 (human (endogenous in HEK293T)); assay: SEC; DIF-FRAC control sample (co-fractionation mass spectrometry): clarified HEK293T lysate without RNase A, native SEC on BioSep-SEC-s4000 in PBS pH 7.2, 50 fractions, proteins of each fraction identified by LC-MS/MS; co-elution of elution profiles
[2] = biological target: T1, DRG1 (human (endogenous in HEK293T)); assay: SEC; DIF-FRAC RNase A-treated sample (co-fractionation mass spectrometry): clarified HEK293T lysate with RNase A (80 ug, 30 min, room temperature), native SEC on BioSep-SEC-s4000 in PBS pH 7.2, 50 fractions, proteins of each fraction identified by LC-MS/MS; co-elution of elution profiles
[3] = biological target: T2, Racgap1 (mouse (endogenous in J1 ES cells)); assay: SEC; DIF-FRAC control sample: mouse J1 ES cell lysate without RNase A, native SEC on BioSep-SEC-s4000 in PBS pH 7.2, fractions by LC-MS/MS; co-elution of elution profiles

Binder	binding [1]	binding [2]	binding [3]
B1	no binding (condition: control lysate, RNA not degraded)	binds	–
B2	–	–	binds
